Taken from: PubChem BioAssay AID1259424 (University of Nebraska Medical Center, 2018)

Assay: 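Rank knockdowns across the genome by resemblance to the KSR1 depletion profile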 (primary screen)
Cell system: human HCT116 colon cancer cells
Reagents: siRNA pool against human genes, 50 nM
Measurement: 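Six signature mRNAs by branched-DNA multiplex assay, scaled to two housekeeping genes and non-targeting median, log2; matched to mean KSR1 knockdown profile by Pearson correlation and euclidean distance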
Scale: mean correlation with KSR1 profile and KSR1 correlation: higher = expression change more like KSR1 knockdown; mean distance from KSR1 profile: higher = expression change less like KSR1 knockdown
The whole screen tested about 14,000 reagents; this is a random part of them. 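Higher correlation or smaller distance means closer resemblance to KSR1 loss; control wells, including KSR1 knockdowns, recur on many plates.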 Reagent sequences are not shown. The record does not give: the time to read-out.

The first 3 records, ahead of the listing:
no.	gene symbol	PubChem SID	mean correlation with KSR1 profile	mean distance from KSR1 profile	KSR1 correlation, replicate 1	KSR1 correlation, replicate 2	KSR1 correlation, replicate 3
1	HFE (GeneID 3077)	SID363991741	0.765	1.05	0.79	0.73	0.626
2	DNASE2 (GeneID 1777)	SID363992647	-0.0741	1.88	-0.00646	-0.0366	-0.174
3	TP53TG3 (GeneID 24150)	SID363999447	-0.4	2.06	-0.318	-0.445	-0.547

The list itself, from the first entry:
no.	gene symbol	PubChem SID	mean correlation with KSR1 profile	mean distance from KSR1 profile	KSR1 correlation, replicate 1	KSR1 correlation, replicate 2	KSR1 correlation, replicate 3
1	HFE (GeneID 3077)	SID363991741	0.765	1.05	0.79	0.73	0.626
2	DNASE2 (GeneID 1777)	SID363992647	-0.0741	1.88	-0.00646	-0.0366	-0.174
3	TP53TG3 (GeneID 24150)	SID363999447	-0.4	2.06	-0.318	-0.445	-0.547
4	SLC12A8 (GeneID 84561)	SID364002927	0.549	2.9	0.523	0.585	0.273
5	ZRANB1 (GeneID 54764)	SID364000374	-0.119	2.25	-0.128	-0.0508	-0.33
6	SLC25A15 (GeneID 10166)	SID363998689	0.509	3.08	0.333	0.611	0.568
7	HLA-DQA2 (GeneID 3118)	SID364001476	-0.0736	1.88	-0.0564	-0.346	0.253
8	DDX46 (GeneID 9879)	SID363999131	0.18	2.3	0.497	0.115	-0.122
9	GALNT9 (GeneID 50614)	SID364002190	-0.354	1.27	-0.595	-0.343	0.00766
10	ZCCHC14 (GeneID 23174)	SID363999328	-0.358	2.62	-0.361	-0.284	-0.308
11	CKS1B (GeneID 1163)	SID363993041	0.81	1.13	0.867	0.687	0.553
12	GCK (GeneID 2645)	SID363991498	-0.0738	2.57	-0.333	-0.223	-0.00285
13	PCK2 (GeneID 5106)	SID363995534	0.18	1.77	0.337	0.467	-0.164
14	DSE (GeneID 29940)	SID363998460	-0.338	1.32	-0.527	-0.553	-0.103
15	PRAM1 (GeneID 84106)	SID364003807	0.62	1.86	0.541	0.589	0.514
16	RFX5 (GeneID 5993)	SID363991780	0.254	1.51	0.0983	0.00806	0.445
17	RPP14 (GeneID 11102)	SID363997773	0.0309	1.98	0.0981	0.0682	0.226
18	ZFHX4 (GeneID 79776)	SID364003003	0.506	2.65	0.552	0.531	0.481
19	ART1 (GeneID 417)	SID363995304	-0.167	1.92	-0.452	0.21	0.221
20	FPR2 (GeneID 2358)	SID363992724	0.0698	2.52	0.0333	0.317	-0.27
21	CCND3 (GeneID 896)	SID363992979	-0.468	3.03	-0.405	-0.62	-0.544
22	MAIP1 (GeneID 79568)	SID364002842	0.0296	2.19	0.188	-0.0256	0.0128
23	ANKS1A (GeneID 23294)	SID363999377	-0.601	2.87	-0.597	-0.604	-0.423
24	SETX (GeneID 23064)	SID363999270	-0.707	3.05	-0.685	-0.52	-0.599
25	TKTL1 (GeneID 8277)	SID363998175	0.561	1.32	0.391	0.394	0.505
26	NDRG4 (GeneID 65009)	SID364001714	0.244	3.88	0.607	-0.0136	0.0188
27	H2BC12L (GeneID 54145)	SID364000320	-0.0884	1.94	-0.112	0.113	-0.371
28	FDFT1 (GeneID 2222)	SID363995444	-0.246	3.79	-0.23	-0.256	-0.289
29	LPAR4 (GeneID 2846)	SID363996213	0.896	0.742	0.901	0.906	0.883
30	SEMA4B (GeneID 10509)	SID364001562	-0.171	4.06	0.037	-0.15	-0.428
31	SOCS6 (GeneID 9306)	SID363995231	-0.0159	1.13	0.1	0.178	-0.0423
32	PHF14 (GeneID 9678)	SID364005577	-0.23	3.82	-0.162	-0.288	-0.071
33	HDAC4 (GeneID 9759)	SID363996888	0.00771	3.13	0.0497	-0.406	0.185
34	MT1X (GeneID 4501)	SID363996814	-0.173	2.38	-0.00724	-0.118	-0.164
35	GPER1 (GeneID 2852)	SID363992763	-0.171	2.41	0.104	0.0488	-0.731
36	SH2D3C (GeneID 10044)	SID363996391	-0.228	4.13	0.0506	-0.232	-0.512
37	ITGA5 (GeneID 3678)	SID363993406	-0.0879	1.47	-0.39	0.128	0.379
38	ENDOU (GeneID 8909)	SID363996877	0.93	0.583	0.884	0.912	0.945
39	LRRTM4 (GeneID 80059)	SID364003199	0.73	3.12	0.658	0.713	0.739
40	PMPCB (GeneID 9512)	SID363995274	-0.439	1.58	-0.177	-0.0894	-0.559
41	NDUFA9 (GeneID 4704)	SID363995941	-0.0787	1.63	0.221	0.0268	-0.25
42	NEDD4 (GeneID 4734)	SID363996984	0.131	1.23	-0.105	-0.098	0.24
43	XRCC1 (GeneID 7515)	SID363997119	0.368	1.41	0.402	0.0282	0.297
44	TLK1 (GeneID 9874)	SID363998206	0.503	1.56	0.609	0.519	0.256
45	AFF2 (GeneID 2334)	SID363993235	-0.369	2.14	-0.479	-0.617	-0.498
46	AHSA2P (GeneID 130872)	SID364004716	-0.221	1.71	0.108	-0.129	-0.273
47	KLHDC8A (GeneID 55220)	SID364000873	-0.885	3.38	-0.807	-0.673	-0.811
48	PPP3CB (GeneID 5532)	SID364002029	-0.487	2.08	-0.407	-0.618	-0.395
49	PLEKHG3 (GeneID 26030)	SID364005260	-0.337	3.01	-0.181	-0.462	-0.429
50	PPP3CC (GeneID 5533)	SID363996500	-0.314	3.08	-0.388	-0.448	-0.171
